Results as given in patent US20210269519A1.
Results are given in words; binding and its absence hold for the method and conditions named. In cells and extracts the contact can be indirect. Some results given as binding are weak or reduced against the parent protein; the word gives no strength. Sequences can lack the tags named with a protein.

Chains of the proteins cited; added tags and fusions are not shown. Lines headed by an entry give the natural chain unless they say otherwise; changes in a name come on top.
UniProt Q9UKV5: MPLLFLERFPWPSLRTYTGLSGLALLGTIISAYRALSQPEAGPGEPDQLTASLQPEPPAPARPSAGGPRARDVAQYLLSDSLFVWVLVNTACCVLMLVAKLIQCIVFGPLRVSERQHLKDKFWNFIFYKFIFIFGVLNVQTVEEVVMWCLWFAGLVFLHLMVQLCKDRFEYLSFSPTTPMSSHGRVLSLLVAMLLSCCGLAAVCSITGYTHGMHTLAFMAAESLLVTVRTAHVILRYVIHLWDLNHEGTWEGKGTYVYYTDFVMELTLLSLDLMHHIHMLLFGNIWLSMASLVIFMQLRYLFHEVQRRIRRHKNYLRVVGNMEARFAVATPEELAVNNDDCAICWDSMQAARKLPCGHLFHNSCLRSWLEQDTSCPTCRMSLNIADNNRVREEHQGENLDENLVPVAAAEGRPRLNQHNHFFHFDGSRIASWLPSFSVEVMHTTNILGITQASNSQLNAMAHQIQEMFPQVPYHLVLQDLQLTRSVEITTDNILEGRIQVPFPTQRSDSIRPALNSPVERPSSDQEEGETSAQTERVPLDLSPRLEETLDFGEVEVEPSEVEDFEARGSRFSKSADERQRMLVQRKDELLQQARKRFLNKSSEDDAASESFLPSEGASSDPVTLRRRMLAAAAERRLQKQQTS

What was measured:
[1] = biological target: FLAG-tagged VCP (Homo sapiens (Human)) (UniProt P55072); assay: co-immunoprecipitation from HEK293T lysates with anti-FLAG M2 agarose, immunoblot with anti-HA [panel B]
[2] = biological target: T1, FLAG-tagged UBXD8 (Homo sapiens (Human)) (UniProt Q96CS3); assay: as above
T1 sequence: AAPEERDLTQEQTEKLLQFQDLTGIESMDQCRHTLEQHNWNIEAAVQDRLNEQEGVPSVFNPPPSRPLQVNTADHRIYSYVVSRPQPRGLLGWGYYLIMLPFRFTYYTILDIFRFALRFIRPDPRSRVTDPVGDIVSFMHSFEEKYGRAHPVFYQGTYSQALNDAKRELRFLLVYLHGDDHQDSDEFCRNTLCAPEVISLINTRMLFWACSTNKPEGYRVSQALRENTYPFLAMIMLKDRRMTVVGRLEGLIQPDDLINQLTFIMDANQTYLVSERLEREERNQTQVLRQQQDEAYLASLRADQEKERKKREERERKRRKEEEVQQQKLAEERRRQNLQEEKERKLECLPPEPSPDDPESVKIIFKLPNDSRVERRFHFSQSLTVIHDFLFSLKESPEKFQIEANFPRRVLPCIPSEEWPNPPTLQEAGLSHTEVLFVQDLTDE

[3] = biological target: FLAG-tagged GP78 (Homo sapiens (Human)) (UniProt Q9UKV5); assay: co-immunoprecipitation from HEK293T lysates with anti-FLAG M2 agarose, immunoblot with anti-HA [panel D]

Measured: binding

B1: HA-UBAC2 (protein, not shown: small tags and cut ends)
chain: HCQKLFVYDLHAVKNDFQIWRLICGRIICLDLKDTFCSSLLIYNFRIFERRYGSRKFASFLLGSWVLSALFDFLLIEAMQYFFGITAASNLPSGFLAPVFALFVPFYCSIPRVQVAQILGPLSITNKTLIYILGLQLFTSGSYIWIVAISGLMSGLCYDSKMFQVHQVLCIPSWMAKFFSWTLEPIFSSSEPTSEARIGMGATLDIQRQQRMELLDRQLMFSQFAQGRRQRQQQGGMINWNRLFPPLRQRQNVNYQGGRQSEPAAPPLEVSEEQVARLMEMGFSRGDALEALRASNNDLNVATNFLLQH
binds: all assays above
